For 60 compounds, cell number change and AC50 results are on record in PubChem BioAssay AID2685 (National Center for Advancing Translational Sciences (NCATS), 2010).

The other results are listed elsewhere or left out. The main result of the screen is listed elsewhere. These columns were measured beside it and carry no call. Compounds called inactive in the main read-out are mostly missing here. The note in brackets gives the kind of curve behind each potency; many fits are weak.

The assay is described as follows: qHTS Assay for Lipid Storage Modulators in Drosophila S3 Cells.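 On cell number change: cells counted by Cell Tracker Red CMTPX staining in the red channel.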 To be noted: BODIPY lipid droplet fluorescence, 18-24 h; for cell number change: measured here: cell count max response, cells fed with added oleic acid. The essentials:
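Drosophila S3 cells loaded with oleic acid (400 uM, as added) and compounds at several concentrations; lipid droplets imaged by 488-nm laser-scanning cytometry, 500–530 nm intensity and object ratio to cell channel. Percent activity normalized to 20 uM Triacsin C.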
In general terms: In qHTS, concentration-response curves come from the screen itself.

Where [1] appears, read: measured here: lipid fluorescence (Fed channel) AC50, cells fed with added oleic acid.
The mark [2] stands for this setting: measured here: cell number channel AC50, cells fed with added oleic acid.

A word on the AC50: it is the concentration giving half of the maximal activity seen. Low readings indicate activity at low concentration, high ones activity only at high concentration. As to `CC(=O)Nc1ccc(S(=O)(=O)NCC(=O)OCC(=O)NNC(=O)c2ccccc2)cc1`, the cell number change was -2.02%. For the same compound, the AC50 under setting [1] was 4.61 µM [rising, single point].

Turning to `COc1ccc(-n2c(SCC(=O)N3CCCCC3)nc3ccccc3c2=O)cc1`, the cell number change came to 19.4%.

For the compound `CCC(=O)N1CCN(c2ccc(NC(=S)NC(=O)COc3ccccc3)cc2)CC1`, the cell number change was -47%. The AC50 under setting [2] was 18.4 µM [falling, single point]. Under setting [1], the AC50 was 16.4 µM [falling, single point].

As to `COc1ccc(C(=O)N=C2SC3CS(=O)(=O)CC3N2Cc2ccccc2)cc1OC` (centres undefined), the AC50 under setting [1] is 32.6 µM [falling, single point].

Consider `CCCC1=C(C(=O)OCC)C(c2ccc(F)cc2)n2ncnc2N1` (centres undefined), for which the cell number change turned out to be 37.1%. Also, the AC50 under setting [2] was 29.1 µM [rising, single point]. The half-maximal activity concentration (AC50) under setting [1] was 0.092 µM [falling, full curve, poor fit].

`CN1CCN(/N=C/c2ccc(-c3ccccc3)cc2)CC1`: the AC50 under setting [1] was 0.517 µM [falling, single point].

`CC(C)COC(=O)NCC12C=CC(O1)C1C(=O)N(c3ccc(Cl)cc3)C(=O)C12` (centres undefined): the AC50 is, setting by setting: under setting [2], 0.517 µM [rising, single point]; under setting [1], 0.116 µM [rising, partial curve, poor fit].

Consider `O=C(Nc1nc2ccccc2[nH]1)C1CCCC1`, for which the cell number change is -27.2%.

`Cc1ccccc1NC(=O)CSc1nc(N)c(C#N)cc1C#N`: the cell number change was found to be 70.8%. Besides, the AC50 under setting [2] was 0.259 µM [rising, partial curve]. Besides, under setting [1], the AC50 is 1.16 µM [rising, full curve, poor fit].

Consider `Cc1ccccc1NC(=S)NC(=O)C1CCCCC1`, for which the cell number change was 32.5%. For the same compound, the AC50 under setting [2] is 29.1 µM [rising, single point]. Besides, the AC50 under setting [1] is 0.92 µM [rising, full curve].

For `CCC1CCCCN1C(=O)CCc1nnc(Cc2c[nH]c3ccccc23)o1` (centres undefined), the cell number change was -40.1%. The AC50 under setting [2] is 23.1 µM [falling, partial curve]. For the same compound, under setting [1], the AC50 was 0.00651 µM [falling, full curve, poor fit].

Take `CCC(=O)N(Cc1ccccc1)c1ccccn1`: the cell number change is -31.8%. For the same compound, the AC50 under setting [2] is 0.651 µM [falling, full curve, poor fit].

`COc1cccc(C(=O)N2CCOCC2)c1`: the cell number change was -46.4%. The AC50 under setting [2] was 1.84 µM [falling, partial curve, poor fit]. In addition, under setting [1], the AC50 is 5.17 µM [falling, partial curve].

As for `O=[N+]([O-])c1ccc(N/N=C2/CCCCC2c2ccccn2)c([N+](=O)[O-])c1` (centres undefined), the cell number change came out at 5.42%. Under setting [1], the AC50 was 16.4 µM [rising, partial curve].

With `Cc1cc(=O)n2nc(N3CCCC(C(=O)NCCCN4CC(C)CC(C)C4)C3)sc2n1` (centres undefined), the cell number change was -21.8%.

Regarding `COc1ccc(-c2cc(C(=O)Nc3c(C)nn(Cc4ccccc4)c3C)no2)cc1`, the cell number change was -61.3%. In addition, the AC50 under setting [2] was 29.1 µM [falling, single point]. Further, the AC50 under setting [1] was 0.82 µM [falling, full curve, poor fit].

Take `COc1ccc(CCNC(=O)COC(=O)C2COc3ccccc3O2)cc1` (centres undefined): the cell number change was 6.45%. Also, the AC50 under setting [1] is 18.4 µM [falling, partial curve, poor fit].

On to `CCN(CC)Cc1c(C(=O)OC(C)C)nnn1-c1nonc1N`, for which the cell number change was -19.3%. Also, under setting [2], the AC50 was 7.31 µM [falling, single point]. The AC50 under setting [1] was 20.6 µM [falling, partial curve].

As to `COC(=O)COc1c(/C=C\c2nc(O)c([N+](=O)[O-])c(=O)[nH]2)cccc1OC`, the cell number change was 15.6%. The AC50 under setting [1] was 23.1 µM [rising, single point].

As for `Cc1cccc(OC(C)C(=O)N/N=C\c2ccncc2)c1` (centres undefined), the cell number change was 16.1%. Further, under setting [1], the AC50 was 0.00411 µM [rising, full curve, poor fit].

For the compound `O=C(NCCC1CC1(Cl)Cl)Nc1ccccc1` (centres undefined), the cell number change turned out to be 12.5%. In addition, under setting [1], the AC50 is 0.00461 µM [rising, full curve, poor fit].

For `CCOC(=O)C1(Cc2cccc(F)c2)CCN(C(=O)Cn2cnnn2)CC1`, the cell number change was -21.8%. Moreover, the AC50 under setting [2] was 0.0058 µM [falling, full curve, poor fit].

On to `CCCCS/C(=C(/C#N)C(N)=O)c1cc2c([nH]1)CCCC2`, for which the cell number change was -44.8%. Moreover, the AC50 under setting [2] was 2.91 µM [falling, full curve]. Moreover, the AC50 under setting [1] was 11.6 µM [falling, partial curve].

Take `COc1cc(S(=O)(=O)NC(C)C)ccc1Cl`: the cell number change was determined as 13%. Further, the AC50 under setting [1] is 6.51 µM [falling, single point].

For the compound `Cc1ccc(C2=[N+]([O-])C(C)N(O)C2(C)C)o1` (centres undefined), under setting [1], the AC50 was 0.82 µM [falling, partial curve].

Consider `CCC(=O)Nc1ccc(NC(=O)c2ccccn2)cn1`, for which, under setting [2], the AC50 is 1.64 µM [rising, partial curve].

Take `Cc1nc(SCC(=O)NC(=O)NCc2ccco2)nc(C)c1C`: the cell number change stood at 7.17%.

As to `O=C(CSc1nnc2ccc3ccccc3n12)N1CCOCC1`, the cell number change is 21.4%. The AC50 under setting [1] is 1.16 µM [rising, partial curve].

With `CSc1nc(NCc2ccco2)c2c3c(sc2n1)CN(C)CC3`, the cell number change is 0.81%. Also, the AC50 under setting [1] is 1.46 µM [falling, full curve].

For `CC(C)c1nnc(NC(=O)CS(=O)(=O)c2ccccc2)s1`, the cell number change was -9.24%.

As to `Cc1oc(-c2ccccc2Cl)nc1CS(=O)(=O)CC(=O)NCCc1ccccc1`, the cell number change is 0.576%. Moreover, the AC50 under setting [1] was 1.64 µM [rising, partial curve, poor fit].

On to `Cc1ccc(-c2nc3ccccc3o2)cc1NC(=O)c1ccc2c(c1)OCO2`, for which the AC50 under setting [2] is 0.082 µM [rising, full curve, poor fit] and the AC50 under setting [1] is 0.13 µM [rising, full curve, poor fit].

In the case of `CCN(Cc1cnn(C)c1)C(=O)c1cc(COc2ccc3c(c2)CCCC3)on1`, the cell number change was 0.54%. For the same compound, under setting [1], the AC50 was 29.1 µM [rising, single point].

As for `CC1CCCC(NC(=O)COC(=O)c2ccccc2[N+](=O)[O-])C1C` (centres undefined), the cell number change was found to be 18.2%. Under setting [2], the AC50 is 6.51 µM [rising, single point].

Take `COc1ccc(NC(=O)COc2nsnc2N2CCOCC2)cc1`: the cell number change is 111%. In addition, the AC50 under setting [1] is 29.1 µM [rising, single point].

Consider `O=C(Cc1cccc(C(F)(F)F)c1)NCC(c1ccco1)N1CCCCC1` (centres undefined), for which the cell number change was -27%.

Consider `CCC(=O)c1cn(CC(=O)NCC2CCCO2)c2ccccc12` (centres undefined), for which the cell number change is -0.705%.

Turning to `COc1ccc(NC(=O)CC2C(=O)N(Cc3ccco3)C(=S)N2C(C)C)cc1` (centres undefined), the cell number change stood at 5.76%.

With `Cc1ccc(Cn2ncc3c(N4CCN(c5ccccc5C)CC4)ncnc32)cc1`, the AC50 under setting [1] is 0.103 µM [rising, full curve, poor fit].

As for `COc1ccccc1C(=O)NCCN=C1NS(=O)(=O)c2ccccc21`, the cell number change is 1.32%. Under setting [1], the AC50 was 5.62 µM [falling, single point].

Take `Cc1ccc(NC(=O)CCSc2nnc(C)o2)cc1`: the cell number change was 6.32%.

Take `COc1ccc2nc(NCCCNC(=O)c3cc(OC)c(OC)c(OC)c3)c(C#N)cc2c1`: the cell number change came out at 4.76%. The AC50 under setting [1] is 0.82 µM [rising, full curve, poor fit].

In the case of `CSc1cccc(N2CC(C(=O)Nc3ccccc3N3CCCC3)CC2=O)c1` (centres undefined), the AC50 under setting [2] was 0.116 µM [rising, full curve, poor fit].

With `Cc1cc(NC(=O)COC(=O)CNC(=O)c2cccs2)c([N+](=O)[O-])cc1C`, the cell number change was determined as 8.32%. Besides, the AC50 under setting [1] was 0.103 µM [rising, full curve, poor fit].

For `CCOC(=O)c1oc2cc(O)c(CC)cc2c(=O)c1-c1cscn1`, the AC50 under setting [1] was 0.291 µM [falling, full curve].

Regarding `CCn1c(=O)n(CC)c2cc(NC(=O)CSc3ccc([N+](=O)[O-])cn3)ccc21`, the cell number change was found to be 20.9%. Besides, under setting [1], the AC50 is 10.3 µM [rising, partial curve, poor fit].

Turning to `Cc1c(C(=O)N2CCN(c3ncccn3)CC2)oc2c(Cl)cccc12`, the cell number change was 15.3%. In addition, the AC50 under setting [2] was 2.06 µM [rising, partial curve].

Take `Cc1ccn2c(c1)nc(=O)c1cc(S(=O)(=O)N3CCC(C)CC3)ccc12`: the cell number change is -5.97%.

As for `CCOc1ccc(C(C(=O)NC(C)(C)C)N(CCOC)C(=O)CCC(=O)Nc2nccs2)cc1` (centres undefined), the AC50 under setting [1] is 6.51 µM [rising, single point].

In the case of `Cc1ccc(C)n1-c1ccc(C(=O)N/N=C/c2ccncc2)cc1`, the cell number change is -10.3%. Further, the AC50 under setting [1] is 16.4 µM [falling, partial curve].

As to `Cc1cc(C)c(NC(=O)/C=C\C(=O)O)c([N+](=O)[O-])c1`, the cell number change is -22.8%. For the same compound, the AC50 under setting [1] was 14.6 µM [falling, single point].

As for `CCn1c2ccccc2c2cc(CNCc3ccc(OC)cc3OC)ccc21`, the cell number change is -68.6%. Also, under setting [2], the AC50 was 18.4 µM [falling, single point]. Besides, the AC50 under setting [1] is 18.4 µM [falling, single point].

Regarding `Clc1ccccc1/C=N/NC1=Nc2cccc3cccc1c23`, the cell number change is -60.9%. Besides, under setting [2], the AC50 was 29.1 µM [falling, single point]. In addition, the AC50 under setting [1] was 16.4 µM [falling, partial curve, poor fit].

On to `CCOC(=O)NC(NC(=S)Nc1ccccc1[N+](=O)[O-])C(Cl)(Cl)Cl` (centres undefined), for which the cell number change was -2.29%. Besides, the AC50 under setting [1] is 1.03 µM [falling, full curve, poor fit].

Take `COc1ccc(OC)c(-n2nnnc2SCC(=O)Nc2ccc3c(c2)OCCO3)c1`: the cell number change was -5.97%.

Regarding `Cc1cccc(C(=O)N2CCC(N3CCC(C(=O)N4CCOCC4)CC3)CC2)c1`, the cell number change was -14.4%. Under setting [2], the AC50 is 0.103 µM [rising, full curve, poor fit].

Take `COc1cccc(NC(=O)COC(=O)c2ccc(S(=O)(=O)NCc3ccco3)cc2)c1`: the cell number change is -31.7%. Also, the AC50 under setting [2] is 0.731 µM [falling, full curve].

For `O=C(O)CC1(CC(=O)Nc2ccc(F)cc2F)CCCCC1`, the cell number change is -18.6%. Besides, under setting [2], the AC50 is 4.11 µM [falling, single point]. The AC50 under setting [1] is 3.66 µM [falling, full curve, poor fit].

For the compound `CCOC(=O)c1cccc(NS(=O)(=O)c2c(C)[nH]c(C)c2C(=O)N2CCCC2)c1`, the cell number change is -78.2%. Moreover, under setting [2], the AC50 is 29.1 µM [falling, single point].

As to `COc1ccc(Cn2cccc(NC(=O)Nc3cccc(C#N)c3)c2=O)cc1`, the cell number change was -35.1%. Moreover, the AC50 under setting [2] is 16.4 µM [falling, partial curve]. Under setting [1], the AC50 was 16.4 µM [falling, partial curve].
